Results taken from paper PMC12667553, “TWF2 Drives Tumor Progression and Sunitinib Resistance in Renal Cell Carcinoma through Hippo Signaling Suppression” (Advanced Science, 2025).
Substitutions are numbered along the chain they refer to. Results are given in words; binding and its absence hold for the method and conditions named. In cells and extracts the contact can be indirect. Some results given as binding are weak or reduced against the parent protein; the word gives no strength. For some assays here: Sequences can lack the tags named with a protein. Each block holds one substance with its values, some of them ahead of it.

The chains behind the UniProt entries cited, without tags or fusion partners.
UniProt P46937: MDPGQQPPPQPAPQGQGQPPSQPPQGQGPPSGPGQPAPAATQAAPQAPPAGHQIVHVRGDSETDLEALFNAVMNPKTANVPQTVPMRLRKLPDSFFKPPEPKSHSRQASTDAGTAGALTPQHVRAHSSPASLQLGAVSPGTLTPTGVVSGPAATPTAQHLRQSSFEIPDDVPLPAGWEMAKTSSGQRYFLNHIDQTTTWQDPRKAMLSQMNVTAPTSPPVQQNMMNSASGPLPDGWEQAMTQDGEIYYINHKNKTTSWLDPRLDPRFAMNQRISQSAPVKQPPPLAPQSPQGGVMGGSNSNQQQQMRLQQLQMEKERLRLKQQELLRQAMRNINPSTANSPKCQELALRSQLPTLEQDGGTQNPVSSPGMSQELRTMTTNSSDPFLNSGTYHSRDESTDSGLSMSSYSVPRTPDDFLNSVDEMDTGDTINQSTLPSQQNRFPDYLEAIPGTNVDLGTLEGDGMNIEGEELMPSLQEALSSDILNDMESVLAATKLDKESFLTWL

Experiments:
[1] = molecular target: T1, Flag-tagged TWF2 E120A, expressed in 293T cells (human) (UniProt Q6IBS0); assay: co-IP; 293T cells cotransfected with Flag-TWF2 (wild type or alanine mutants) and YAP; precipitated with anti-Flag antibody
T1 sequence: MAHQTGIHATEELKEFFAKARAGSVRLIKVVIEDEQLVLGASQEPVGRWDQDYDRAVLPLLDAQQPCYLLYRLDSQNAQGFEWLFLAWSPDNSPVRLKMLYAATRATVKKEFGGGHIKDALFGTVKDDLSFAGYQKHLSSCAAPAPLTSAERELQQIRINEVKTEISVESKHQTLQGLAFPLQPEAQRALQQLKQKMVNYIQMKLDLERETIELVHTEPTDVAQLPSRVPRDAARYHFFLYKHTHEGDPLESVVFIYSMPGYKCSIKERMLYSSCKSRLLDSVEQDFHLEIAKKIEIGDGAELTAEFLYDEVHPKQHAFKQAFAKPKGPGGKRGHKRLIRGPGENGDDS

[2] = molecular target: T2, Flag-tagged TWF2 H137A, expressed in 293T cells (human) (UniProt Q6IBS0); assay: as above
T2 sequence: T1 sequence with A120E, H137A

[3] = molecular target: T3, Flag-tagged TWF2 R96A, expressed in 293T cells (human) (UniProt Q6IBS0); assay: as above
T3 sequence: T1 sequence with R96A, A120E

[4] = molecular target: T4, Flag-tagged TWF2, wild type, expressed in 293T cells (human) (UniProt Q6IBS0); assay: as above
T4 sequence: T1 sequence with A120E

[5] = molecular target: T5, TWF2, endogenous in RCC cells (human (endogenous in 769-P, 786-O-R)) (UniProt Q6IBS0); assay: co-IP; endogenous TWF2 and YAP in 769-P cell lysate
T5 sequence: T1 sequence with A120E

[6] = molecular target: T5, TWF2, endogenous in RCC cells (human (endogenous in 769-P, 786-O-R)); assay: co-IP; 786-O-R (sunitinib-resistant) cells treated with increasing concentrations of salvianolic acid E
[7] = molecular target: T6, Flag-tagged TWF2 (Twinfilin actin-binding protein 2), wild type, overexpressed in 786-O cells (human) (UniProt Q6IBS0); assay: co-IP; overexpressed Flag-tagged TWF2 (wild type or M99A) and YAP in 786-O cell lysate; anti-Flag magnetic beads
T6 sequence: T1 sequence with A120E

[8] = molecular target: T6, Flag-tagged TWF2 (Twinfilin actin-binding protein 2), wild type, overexpressed in 786-O cells (human); assay: co-IP; 786-O cells transfected with Flag-TWF2 and HA-tagged YAP constructs; precipitated with anti-Flag antibody, blotted with anti-HA and anti-Flag

binding [1]: binds | binding [2]: binds | binding [3]: binds | binding [4]: binds
Substance: HA-tagged YAP, wild type, expressed in 293T cells (from UniProt P46937 1-504)

binding [5]: binds | binding [6]: binds | binding [7]: binds
Substance: Yes-associated protein (YAP), endogenous in RCC cells (from UniProt P46937 1-504)

binding [8]: binds
Substance: HA-tagged wild-type YAP (full-length, 1-504), expressed in 786-O cells (from UniProt P46937 1-504)
